# Data as given in the supplement of paper PMC12067093, “Discovery and optimisation of a covalent ligand for TRIM25 and its application to targeted protein ubiquitination” (Chemical Science, 2025).
# The chains behind the UniProt entries cited, without tags or fusion partners. Where a name states a change or a piece, a line headed by the entry shows the natural chain unless it says otherwise.
# UniProt Q05932: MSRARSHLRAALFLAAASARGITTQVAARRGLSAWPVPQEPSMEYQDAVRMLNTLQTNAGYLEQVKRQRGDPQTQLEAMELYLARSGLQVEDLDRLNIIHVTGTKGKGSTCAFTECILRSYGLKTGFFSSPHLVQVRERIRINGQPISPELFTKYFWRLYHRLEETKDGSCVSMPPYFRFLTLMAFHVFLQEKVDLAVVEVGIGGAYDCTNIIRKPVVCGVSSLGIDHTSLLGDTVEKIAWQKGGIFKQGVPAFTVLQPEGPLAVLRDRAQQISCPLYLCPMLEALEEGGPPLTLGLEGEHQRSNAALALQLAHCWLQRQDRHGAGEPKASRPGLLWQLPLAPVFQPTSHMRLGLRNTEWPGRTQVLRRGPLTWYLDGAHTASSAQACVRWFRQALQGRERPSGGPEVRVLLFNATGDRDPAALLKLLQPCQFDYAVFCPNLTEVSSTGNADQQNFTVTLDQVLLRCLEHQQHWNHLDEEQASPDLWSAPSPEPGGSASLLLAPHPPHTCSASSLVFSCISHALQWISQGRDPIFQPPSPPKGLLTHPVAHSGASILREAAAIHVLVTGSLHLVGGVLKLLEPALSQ
# UniProt Q13045: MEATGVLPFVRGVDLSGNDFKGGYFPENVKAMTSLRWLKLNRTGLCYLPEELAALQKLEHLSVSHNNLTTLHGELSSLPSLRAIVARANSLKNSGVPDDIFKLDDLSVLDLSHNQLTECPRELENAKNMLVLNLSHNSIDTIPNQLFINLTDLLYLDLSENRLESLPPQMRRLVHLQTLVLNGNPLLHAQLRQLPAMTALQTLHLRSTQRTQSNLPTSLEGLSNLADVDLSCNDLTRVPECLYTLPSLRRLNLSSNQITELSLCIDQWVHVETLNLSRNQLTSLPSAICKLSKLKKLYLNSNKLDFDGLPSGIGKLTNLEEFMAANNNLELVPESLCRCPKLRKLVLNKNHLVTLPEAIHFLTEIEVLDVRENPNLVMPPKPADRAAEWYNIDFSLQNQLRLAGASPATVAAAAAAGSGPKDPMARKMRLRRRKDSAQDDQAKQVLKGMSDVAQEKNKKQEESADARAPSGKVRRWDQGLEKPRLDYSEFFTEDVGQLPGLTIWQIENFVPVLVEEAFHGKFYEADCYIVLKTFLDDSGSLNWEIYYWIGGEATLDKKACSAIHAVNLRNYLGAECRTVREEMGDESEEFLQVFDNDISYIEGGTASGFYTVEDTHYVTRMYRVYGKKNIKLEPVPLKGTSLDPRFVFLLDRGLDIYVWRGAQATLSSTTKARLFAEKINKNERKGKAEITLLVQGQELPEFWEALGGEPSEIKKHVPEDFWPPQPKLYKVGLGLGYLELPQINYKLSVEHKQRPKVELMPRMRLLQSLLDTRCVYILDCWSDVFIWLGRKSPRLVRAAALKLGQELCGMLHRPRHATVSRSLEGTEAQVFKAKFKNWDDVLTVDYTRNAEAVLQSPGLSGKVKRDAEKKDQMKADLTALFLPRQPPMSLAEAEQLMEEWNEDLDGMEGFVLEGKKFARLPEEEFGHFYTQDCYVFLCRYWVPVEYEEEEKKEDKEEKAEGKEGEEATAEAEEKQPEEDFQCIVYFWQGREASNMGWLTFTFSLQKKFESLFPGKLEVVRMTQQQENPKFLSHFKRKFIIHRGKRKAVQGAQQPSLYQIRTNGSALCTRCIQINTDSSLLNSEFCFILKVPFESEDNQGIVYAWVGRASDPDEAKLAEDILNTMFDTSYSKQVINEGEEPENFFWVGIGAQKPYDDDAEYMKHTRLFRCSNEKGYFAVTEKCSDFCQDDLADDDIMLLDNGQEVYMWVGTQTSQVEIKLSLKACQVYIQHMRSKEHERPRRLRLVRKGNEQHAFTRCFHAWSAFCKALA
# UniProt O75369, whole entry, looked up: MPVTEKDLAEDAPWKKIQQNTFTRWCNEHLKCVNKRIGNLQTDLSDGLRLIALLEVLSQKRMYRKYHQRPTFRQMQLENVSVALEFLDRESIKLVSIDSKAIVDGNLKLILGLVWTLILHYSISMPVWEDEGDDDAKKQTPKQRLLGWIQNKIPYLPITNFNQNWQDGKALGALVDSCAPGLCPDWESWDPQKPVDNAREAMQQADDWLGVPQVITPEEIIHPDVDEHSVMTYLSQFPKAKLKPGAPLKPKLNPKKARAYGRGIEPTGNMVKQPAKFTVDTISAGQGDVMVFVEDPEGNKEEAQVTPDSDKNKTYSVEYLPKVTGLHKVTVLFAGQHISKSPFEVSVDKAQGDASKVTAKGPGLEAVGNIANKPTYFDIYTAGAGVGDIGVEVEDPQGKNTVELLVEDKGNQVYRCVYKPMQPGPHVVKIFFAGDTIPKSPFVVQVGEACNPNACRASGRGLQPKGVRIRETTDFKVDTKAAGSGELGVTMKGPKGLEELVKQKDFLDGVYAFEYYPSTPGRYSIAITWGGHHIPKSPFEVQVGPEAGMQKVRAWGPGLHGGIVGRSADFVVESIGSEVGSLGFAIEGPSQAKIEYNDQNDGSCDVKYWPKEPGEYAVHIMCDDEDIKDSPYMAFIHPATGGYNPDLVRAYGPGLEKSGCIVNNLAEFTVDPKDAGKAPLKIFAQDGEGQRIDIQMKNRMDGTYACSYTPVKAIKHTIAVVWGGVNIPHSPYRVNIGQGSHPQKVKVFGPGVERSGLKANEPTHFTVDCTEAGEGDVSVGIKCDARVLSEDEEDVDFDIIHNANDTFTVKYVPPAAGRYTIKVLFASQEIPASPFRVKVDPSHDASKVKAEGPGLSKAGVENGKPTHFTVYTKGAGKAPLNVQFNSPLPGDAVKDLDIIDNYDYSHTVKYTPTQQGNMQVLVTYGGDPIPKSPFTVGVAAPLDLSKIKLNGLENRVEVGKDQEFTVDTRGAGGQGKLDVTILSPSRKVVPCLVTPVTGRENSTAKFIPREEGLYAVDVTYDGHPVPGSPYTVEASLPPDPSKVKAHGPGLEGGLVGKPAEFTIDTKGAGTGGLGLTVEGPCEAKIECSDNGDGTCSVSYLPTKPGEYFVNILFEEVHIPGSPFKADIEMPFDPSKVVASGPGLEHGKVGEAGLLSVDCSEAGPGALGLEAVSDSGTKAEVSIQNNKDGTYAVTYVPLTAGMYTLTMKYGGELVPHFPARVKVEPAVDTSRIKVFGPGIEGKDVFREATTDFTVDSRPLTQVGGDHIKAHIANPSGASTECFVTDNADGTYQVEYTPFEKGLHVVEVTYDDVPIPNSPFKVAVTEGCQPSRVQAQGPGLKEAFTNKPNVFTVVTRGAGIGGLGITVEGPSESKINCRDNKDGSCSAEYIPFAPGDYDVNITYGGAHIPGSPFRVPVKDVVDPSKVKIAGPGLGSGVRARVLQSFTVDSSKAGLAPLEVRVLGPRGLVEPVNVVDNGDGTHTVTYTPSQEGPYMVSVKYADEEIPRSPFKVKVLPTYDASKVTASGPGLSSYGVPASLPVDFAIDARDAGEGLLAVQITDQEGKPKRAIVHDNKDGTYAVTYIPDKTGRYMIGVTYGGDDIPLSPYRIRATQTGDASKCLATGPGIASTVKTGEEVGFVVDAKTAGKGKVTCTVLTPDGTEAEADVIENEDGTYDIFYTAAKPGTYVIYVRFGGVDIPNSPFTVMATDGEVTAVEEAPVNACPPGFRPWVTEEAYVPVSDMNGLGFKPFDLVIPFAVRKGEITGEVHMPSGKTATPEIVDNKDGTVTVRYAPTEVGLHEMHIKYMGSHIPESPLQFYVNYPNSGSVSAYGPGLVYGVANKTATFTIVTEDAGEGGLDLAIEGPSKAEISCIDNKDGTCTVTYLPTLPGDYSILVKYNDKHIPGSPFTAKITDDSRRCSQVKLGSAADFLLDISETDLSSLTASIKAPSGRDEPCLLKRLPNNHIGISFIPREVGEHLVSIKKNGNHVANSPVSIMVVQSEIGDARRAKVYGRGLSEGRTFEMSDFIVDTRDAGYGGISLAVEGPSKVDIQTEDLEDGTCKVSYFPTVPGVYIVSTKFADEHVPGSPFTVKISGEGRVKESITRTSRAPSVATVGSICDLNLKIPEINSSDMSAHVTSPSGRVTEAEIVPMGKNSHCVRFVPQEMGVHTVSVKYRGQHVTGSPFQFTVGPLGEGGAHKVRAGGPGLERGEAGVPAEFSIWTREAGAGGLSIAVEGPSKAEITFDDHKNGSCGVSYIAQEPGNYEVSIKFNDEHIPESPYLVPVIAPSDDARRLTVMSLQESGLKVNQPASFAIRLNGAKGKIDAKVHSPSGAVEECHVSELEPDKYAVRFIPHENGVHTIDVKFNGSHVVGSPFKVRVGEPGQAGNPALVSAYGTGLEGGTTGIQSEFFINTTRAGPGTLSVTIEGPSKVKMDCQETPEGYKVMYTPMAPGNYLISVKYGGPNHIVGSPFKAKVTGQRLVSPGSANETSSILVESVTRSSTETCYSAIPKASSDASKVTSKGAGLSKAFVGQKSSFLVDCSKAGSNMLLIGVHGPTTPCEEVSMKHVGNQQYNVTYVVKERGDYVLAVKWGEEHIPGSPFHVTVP
# UniProt Q9Y2H6: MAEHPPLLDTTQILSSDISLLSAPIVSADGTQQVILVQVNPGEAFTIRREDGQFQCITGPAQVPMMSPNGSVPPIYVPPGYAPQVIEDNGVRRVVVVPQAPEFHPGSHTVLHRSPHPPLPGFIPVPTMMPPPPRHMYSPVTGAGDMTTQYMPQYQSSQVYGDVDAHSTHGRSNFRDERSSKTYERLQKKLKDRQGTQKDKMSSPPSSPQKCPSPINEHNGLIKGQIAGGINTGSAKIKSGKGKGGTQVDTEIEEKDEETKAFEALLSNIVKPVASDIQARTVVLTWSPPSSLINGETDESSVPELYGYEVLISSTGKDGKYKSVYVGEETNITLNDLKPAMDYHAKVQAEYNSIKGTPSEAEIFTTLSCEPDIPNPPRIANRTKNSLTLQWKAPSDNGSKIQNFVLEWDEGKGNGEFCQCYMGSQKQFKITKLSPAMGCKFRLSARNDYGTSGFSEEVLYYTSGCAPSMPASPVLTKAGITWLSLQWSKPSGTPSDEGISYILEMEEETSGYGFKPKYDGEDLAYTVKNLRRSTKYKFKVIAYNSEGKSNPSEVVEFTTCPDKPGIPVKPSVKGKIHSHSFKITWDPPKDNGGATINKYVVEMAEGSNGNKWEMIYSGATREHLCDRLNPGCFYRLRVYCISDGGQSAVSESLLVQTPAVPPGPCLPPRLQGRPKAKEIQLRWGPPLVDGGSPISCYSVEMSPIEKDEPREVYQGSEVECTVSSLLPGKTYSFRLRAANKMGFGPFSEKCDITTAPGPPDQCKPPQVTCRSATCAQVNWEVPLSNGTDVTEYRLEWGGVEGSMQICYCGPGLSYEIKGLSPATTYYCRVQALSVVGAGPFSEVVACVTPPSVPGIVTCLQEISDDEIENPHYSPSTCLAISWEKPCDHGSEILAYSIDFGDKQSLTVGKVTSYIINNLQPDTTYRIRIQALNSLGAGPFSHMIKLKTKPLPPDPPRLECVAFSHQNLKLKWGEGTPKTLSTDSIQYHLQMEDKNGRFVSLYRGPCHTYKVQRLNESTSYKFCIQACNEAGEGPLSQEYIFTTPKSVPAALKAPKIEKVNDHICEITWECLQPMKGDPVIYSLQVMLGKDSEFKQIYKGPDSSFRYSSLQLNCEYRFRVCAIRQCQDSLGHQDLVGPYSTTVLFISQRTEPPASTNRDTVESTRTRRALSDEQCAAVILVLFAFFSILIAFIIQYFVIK
# UniProt Q06546: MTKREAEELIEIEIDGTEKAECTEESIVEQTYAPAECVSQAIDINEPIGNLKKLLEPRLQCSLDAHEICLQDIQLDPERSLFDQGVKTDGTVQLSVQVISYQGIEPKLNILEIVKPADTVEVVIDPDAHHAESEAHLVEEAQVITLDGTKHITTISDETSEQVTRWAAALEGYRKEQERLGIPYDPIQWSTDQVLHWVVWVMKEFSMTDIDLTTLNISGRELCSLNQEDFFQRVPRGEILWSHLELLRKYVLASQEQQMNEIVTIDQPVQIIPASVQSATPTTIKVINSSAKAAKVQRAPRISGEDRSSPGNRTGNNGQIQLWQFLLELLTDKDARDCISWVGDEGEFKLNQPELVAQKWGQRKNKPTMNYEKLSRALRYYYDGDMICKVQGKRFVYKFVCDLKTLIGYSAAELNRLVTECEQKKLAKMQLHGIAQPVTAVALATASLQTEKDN
# UniProt O95684: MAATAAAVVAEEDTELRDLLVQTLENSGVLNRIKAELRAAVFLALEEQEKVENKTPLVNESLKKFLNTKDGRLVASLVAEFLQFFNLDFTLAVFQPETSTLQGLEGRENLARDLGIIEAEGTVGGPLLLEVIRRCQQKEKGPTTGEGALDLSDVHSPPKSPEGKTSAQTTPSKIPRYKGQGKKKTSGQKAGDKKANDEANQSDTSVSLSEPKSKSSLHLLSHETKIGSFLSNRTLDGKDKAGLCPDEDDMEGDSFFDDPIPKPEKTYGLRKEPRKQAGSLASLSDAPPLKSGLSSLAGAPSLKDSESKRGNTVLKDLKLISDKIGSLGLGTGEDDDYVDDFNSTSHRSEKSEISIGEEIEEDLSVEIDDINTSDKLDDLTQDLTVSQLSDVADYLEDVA
# The other results are listed elsewhere or left out.
# Compound: CC1Cc2ccccc2N1C(=O)C1CCCN(C1)C(=O)CCl (mixture of isomers) [TRIM25 ligand 11 (diastereomer mixture)]
# Experiment: probe-labelled cysteine peptide fold change vs DMSO (competition) (log2 fold change); higher = less target engagement (more negative = stronger competition)
# Details: 50 µM; THP-1; incubation time: 4 h
# 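Also: competitive chemoproteomic profiling in live THP-1 cells with an iodoacetamide desthiobiotin (IA-DTB) probe, comparing probe-labelled peptide intensities in compound-treated cells against DMSO-treated controls.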
row,Target,probe-labelled cysteine peptide fold change
1,FSCN1_Q16658_121_LSCFAQTVSPAEK (UniProt Q16658),0.258
2,FN1_P02751_470_FGFCPMAAHEEICTTNEGVMYR (UniProt P02751),0.0343
3,FSCN1_Q16658_80_DGNVTCER (UniProt Q16658),-0.0447
4,FPGS_Q05932_315_SNAALALQLAHCWLQR (UniProt Q05932),-0.0338
5,FTO_Q9C0B1_294+308_ISWDIETPGLAIPLHQGDCYFMLDDLNATHQHCVLAGSQPR (UniProt Q9C0B1),0.0427
6,FLII_Q13045_982_EGEEATAEAEEKQPEEDFQCIVYFWQGR (UniProt Q13045),-0.0259
7,FLNB_O75369_1617_CLATGPGIASTVK (UniProt O75369),0.185
8,FNDC3A_Q9Y2H6_625_EHLCDR (UniProt Q9Y2H6),0.000825
9,FRY_Q5TBA9_2494_CDMQILEER (UniProt Q5TBA9),-0.209
10,GAK_O14976_472_VSECGWAAR (UniProt O14976),-0.068
11,FZD2_Q14332_201_YATLEHPFHCPR (UniProt Q14332),-0.0497
12,FSCN1_Q16658_61_QIWTLEQPPDEAGSAAVCLR (UniProt Q16658),0.167
13,FLII_Q13045_982_QPEEDFQCIVYFWQGR (UniProt Q13045),0.154
14,FLII_Q13045_1265_CFHAWSAFCK (UniProt Q13045),0.188
15,GAB2_Q9UQC2_237_LAQGNGHCVNGISGQVHGFYSLPK (UniProt Q9UQC2),-0.0461
16,FN3KRP_Q9HA64_24_ATGHSGGGCISQGR (UniProt Q9HA64),-0.35
17,FLYWCH2_Q96CP2_64_GVHCVMSLGVPGPATLAK (UniProt Q96CP2),-0.158
18,FTSJ3_Q8IY81_294_ASEIMVDDEELAQHPATTEDIRVCCQDIR (UniProt Q8IY81),0.257

row,Target,probe-labelled cysteine peptide fold change
1,FLNB_O75369_1868_AEISCIDNK (UniProt O75369),0.152
2,FLNB_O75369_1876_DGTCTVTYLPTLPGDYSILVK (UniProt O75369),0.0836
3,FLNB_O75369_416_CVYKPMQPGPHVVK (UniProt O75369),-0.165
4,GADD45GIP1_Q8TAE8_124_EQHIAECMAK (UniProt Q8TAE8),0.377
5,FNBP1_Q96RU3_555_VLATDFDDEFDDEEPLPAIGTCK (UniProt Q96RU3),-0.037
6,FLII_Q13045_232_TQSNLPTSLEGLSNLADVDLSCNDLTR (UniProt Q13045),-0.171
7,FYCO1_Q9BQS8_719_EGECQQLREEVEQCQQLAEAR (UniProt Q9BQS8),-0.203
8,FRYL_O94915_1575_VMEHNQGEPLPFPPAGGCWSPLVDYVPETSSPGLPLHR (UniProt O94915),0.228
9,FKBP5_Q13451_107_GEICHLLCKPEYAYGSAGSLPK (UniProt Q13451),0.232
10,G3BP1_Q13283_73_VMSQNFTNCHTK (UniProt Q13283),-0.186
11,FLNB_O75369_1326_VAVTEGCQPSR (UniProt O75369),-0.0287
12,FH_P07954_333_FEALAAHDALVELSGAMNTTACSLMK (UniProt P07954),0.166
13,FHL2_Q14192_254_CSLSLVGR (UniProt Q14192),0.0367
14,FHOD1_Q9Y613_373_SLEGGGCPAR (UniProt Q9Y613),0.0577
15,GABPA_Q06546_421_LVTECEQK (UniProt Q06546),0.147
16,FLI1_Q01543_83_ESPVDCSVSK (UniProt Q01543),-0.198
17,FGFR1OP_O95684-3_133_TITQLECLLSIGALHFK (UniProt O95684),-0.345
18,FNDC3A_Q9Y2H6_560_SNPSEVVEFTTCPDKPGIPVKPSVK (UniProt Q9Y2H6),-0.0723
